Measured values as given in US12377173B2, “Compositions comprising hyperpolarized probes for H2O2 sensing and methods of using same” (Duke University, priority 2021, dated 2025).

Legend:
[1] = Investigation of buffer pH on reaction rates (1H NMR); details: BBCP 100 mM, 1 equiv H2O2, PBS various pH + 10% D2O

1-(4-boronobenzyl)-4-(cyano)pyridin-1-ium [^15N-BBCP]
effect of buffer pH on fragmentation rate [1]: impeded to a greater extent in acidic solutions
effect of buffer pH on oxidation rate [1]: slowed at pH <6.0
in vitro T1 (spin-lattice relaxation time) (1 T, hyperpolarized solution): 340.1 s
polarization level at dissolution, compared to thermal scans (3 T data, liquid state): 17.3%
SNR at the first timepoint (20-mM HP solution, 3T): 1333
